{"source": "paper PMC11774777", "about": "“A PDZ-kinase allosteric relay mediates Par complex regulator exchange” (The Journal of Biological Chemistry, 2024)", "binders": {"B1": {"name": "aPKC, full length, as co-expressed in the Par complexes (enzyme, UniProt A1Z9X0 1-606)", "chain": "MQKMPSQILNDGSSVSLNSASMNMANTPNSITVKTAYNGQIIITTINKNISYEELCYEIRNICRFPLDQPFTIKWVDEENDPCTISTKMELDEAIRLYEMNFDSQLVIHVFPNVPQAPGLSCDGEDRSIYRRGARRWRKLYRVNGHIFQAKRFNRRAFCAYCQDRIWGLGRQGFKCIQCKLLVHKKCHKLVQKHCTDQPEPLVKERAEESSDPIPVPLPPLPYEAMSGGAEACETHDHAHIVAPPPPEDPLEPGTQRQYSLNDFELIRVIGRGSYAKVLMVELRRTRRIYAMKVIKKALVTDDEDIDWVQTEKHVFETASNHPFLVGLHSCFQTPSRLFFVIEFVRGGDLMYHMQRQRRLPEEHARFYAAEISLALNFLHEKGIIYRDLKLDNVLLDHEGHIKLTDYGMCKEGIRPGDTTSTFCGTPNYIAPEILRGEDYGFSVDWWALGVLLYEMLAGRSPFDLAGASENPDQNTEDYLFQVILEKTIRIPRSLSVRAASVLKGFLNKNPADRLGCHRESAFMDIVSHPFFKNMDWELLERKQVTPPFKPRLDSDRDLANFPPEFTGEAVQLTPDDDHVIDNIDQSEFEGFEYVNPLLMSLEDCV"}}, "molecular_target": "T1, his-Par-6, full length (UniProt O97111)", "T1 sequence": "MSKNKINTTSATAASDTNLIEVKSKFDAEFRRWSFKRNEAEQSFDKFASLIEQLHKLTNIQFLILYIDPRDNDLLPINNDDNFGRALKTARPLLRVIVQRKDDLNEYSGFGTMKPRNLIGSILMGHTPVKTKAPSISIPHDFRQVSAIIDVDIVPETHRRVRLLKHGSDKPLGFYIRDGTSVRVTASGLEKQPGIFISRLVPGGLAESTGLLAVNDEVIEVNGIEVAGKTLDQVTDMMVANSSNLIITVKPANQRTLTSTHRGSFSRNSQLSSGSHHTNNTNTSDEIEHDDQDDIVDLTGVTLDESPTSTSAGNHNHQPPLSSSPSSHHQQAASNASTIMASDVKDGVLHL", "experiment": "co-purification; co-expressed in HEK 293F cells; lysate on HisPur Cobalt resin, then anion exchange (Source Q, 100 to 550 mM NaCl), fractions with the desired proteins pooled", "note": "These are yes or no findings as the source states them, for the method shown. Some results given as binding are weak or reduced against the parent protein; the word gives no strength. Where a sequence is shown, tags or fusion partners need not be part of it.", "data": [{"binder": "B1", "values": [{"measurement": "binding", "value": "binds"}]}]}
